# Library screening results

By UniProt entry, the sequences of proteins in these tests, tags left out.
UniProt E9BF75, entry or part of it: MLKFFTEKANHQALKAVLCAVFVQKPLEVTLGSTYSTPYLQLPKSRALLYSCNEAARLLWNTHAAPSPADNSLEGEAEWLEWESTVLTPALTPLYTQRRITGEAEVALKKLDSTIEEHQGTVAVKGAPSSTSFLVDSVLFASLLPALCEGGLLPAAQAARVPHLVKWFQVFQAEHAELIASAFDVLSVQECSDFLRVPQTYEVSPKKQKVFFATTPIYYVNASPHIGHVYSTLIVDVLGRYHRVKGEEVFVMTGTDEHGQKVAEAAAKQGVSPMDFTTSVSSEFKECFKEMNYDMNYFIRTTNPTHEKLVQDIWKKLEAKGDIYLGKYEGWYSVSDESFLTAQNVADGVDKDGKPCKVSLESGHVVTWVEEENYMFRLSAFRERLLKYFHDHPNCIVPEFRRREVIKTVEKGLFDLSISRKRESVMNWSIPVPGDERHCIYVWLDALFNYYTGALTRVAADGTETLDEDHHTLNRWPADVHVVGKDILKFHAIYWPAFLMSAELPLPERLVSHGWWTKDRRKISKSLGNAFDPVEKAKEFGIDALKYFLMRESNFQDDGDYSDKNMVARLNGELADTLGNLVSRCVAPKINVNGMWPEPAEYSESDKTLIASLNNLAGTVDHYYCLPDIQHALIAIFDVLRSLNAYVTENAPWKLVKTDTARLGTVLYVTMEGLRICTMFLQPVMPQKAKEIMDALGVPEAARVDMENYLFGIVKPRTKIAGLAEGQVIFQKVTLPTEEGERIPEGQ

Data taken from ChEMBL document CHEMBL3988442, “University of Dundee, Small-Polar-MMV Screening Library” (2021).

LdMetRS: 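Primary screen of methionyl-tRNA synthetase; the read-out is not stated. Target: Methionyl-tRNA synthetase (putative), Leishmania donovani (UniProt E9BF75). The test concentration is not given. Values are per cent inhibition. Of about 68,000 compounds tested this way, about 24 (0.035%) reached 50% or more in at least one test.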
Mtb heat-shock: 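Assay on Mycobacterium tuberculosis, filed only as a heat shock assay from Cornell; the read-out is not stated. The concentration is filed as 10 mM, unlikely as a test dose, so the dose is not known. The record gives no direction; compounds that gave an IC50 in retests scored well above the rest, so higher reads as stronger inhibition. About 69,000 compounds were tested under these conditions; 1.4% (about 930) showed 50% or more at least once.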

Results are percentages, as filed.
The record does not define 0% and 100%; most values in the screen are far below 50% and negative numbers occur (in some assays of this library far below -100).
The compounds are a random part of those screened.
A dash means the value is not listed here; it may have been measured.

SMILES	LdMetRS	Mtb heat-shock
CC(C)c1nnc(CN2CCCC3(CC2)CN(C)C(=O)O3)o1 (stereo not shown)	18.75	-5.217
Cc1c(C(=O)NCC(C)C)nnn1-c1cccc2c1CCN(C)C2	19.72	21.63
CCN(CC)c1ncc(Cl)c(C(=O)NC2CC2)n1	5.722	-0.3374
CCCC(Cn1cnc(-c2ccccc2)c1-c1cncn1CC)N(C)C (stereo not shown)	8.591	-8.394
COCc1noc(CCNC(=O)c2ccc(C3CCCO3)s2)n1 (stereo not shown)	-	-24.45
O=C(N1CCOCC1)[C@@]12CCO[C@@H]1CCN(C1CCOCC1)C2	7.781	-
CN(C)CC(=O)N1CCOC2(CCCN(c3ncccc3F)C2)C1.O=C(O)C(F)(F)F.O=C(O)C(F)(F)F (stereo not shown)	-	7.914
c1cnc2[nH]c(C3CCNCC3)c(CN3CCOCC3)c2c1	16.67	-5.457
O=C(O)C(F)(F)F.[H][C@]12CCN(C(=O)c3ccnnc3)CC[C@]1([H])N(CCOC)CCO2	-	15.66
O=C(CCCOc1ccc(F)cc1)N1CCCC(n2cccn2)C1 (stereo not shown)	16.67	5.667
CC(=O)N1CCC2(C1)C(=O)N(CC1CC1)c1ccccc12 (stereo not shown)	3.361	-4.365
CCC(C(=O)N(C)C)n1ccc2ncccc2c1=O (stereo not shown)	9.254	-1.643
Cc1ccsc1CN1CCC(n2cc(C(O)c3ccccc3)nn2)CC1 (stereo not shown)	11.68	14.32
Cc1nc(C)n(CC2CCCN2CC(=O)Nc2c(C)n[nH]c2C)n1 (stereo not shown)	6.842	-2.325
CCc1nsc(N2CCc3sccc3C2)n1	12.32	6.506
O=C(O)C(F)(F)F.[H][C@@]12CCCO[C@]1([H])[C@H](NC(=O)c1ccnnc1)CN(c1ncccn1)C2	-	-10.74
CC(=O)c1nn(-c2ccccc2Cl)c(C)c1C(C)=O	13.94	-14.45
CCCn1cc(C(=O)NCCc2ccncc2)c(C)n1	12.32	31.83
Cc1ncsc1CCC(=O)N1CCCC[C@H](N(C)C)C1	5.926	-9.269
COc1ccccc1N1CCN(C(=O)Cn2nccc2C)CC1(C)C	8.675	90.85
c1cnc(N2CCOC3(CCCN(c4cnccn4)C3)C2)nc1 (stereo not shown)	7.299	-
Cn1cc(CN2CCC3(CC2)CN(C(=O)c2cnccn2)CCO3)cn1	13.97	11.35
Cc1nc(CSCCC(=O)NCc2ccncc2)cs1	18.89	-4.408
CC(=O)Nc1cccc(OCCNC(=O)N(C)Cc2ccccc2)c1	3.714	6.886
Cc1ccc(NC2CCN(C(=O)COCC(F)(F)F)CC2)nn1	14.58	-5.006
CCC(CO)N(Cc1ccccn1)Cc1c[nH]nc1-c1ccc(F)cc1 (stereo not shown)	5.651	20.85
CCOCCCNc1nc2c(s1)c(C)nn2C	11.18	-3.926
[H][C@@]12CCN(Cc3nccs3)C[C@]1([H])O[C@@H](C(=O)NCC1CC1)C2	-	12.45

3 of the entries, repeated:

{"smiles": "O=C(O)C(F)(F)F.[H][C@@]12CCCO[C@]1([H])[C@H](NC(=O)c1ccnnc1)CN(c1ncccn1)C2", "Mtb heat-shock": -10.74}
{"smiles": "CC(=O)Nc1cccc(OCCNC(=O)N(C)Cc2ccccc2)c1", "LdMetRS": 3.714, "Mtb heat-shock": 6.886}
{"smiles": "Cc1ccc(NC2CCN(C(=O)COCC(F)(F)F)CC2)nn1", "LdMetRS": 14.58, "Mtb heat-shock": -5.006}